Test results published in the supplement of paper PMC10060354, “Discovery of a small molecule ligand of FRS2 that inhibits invasion and tumor growth” (Cellular Oncology, 2022).
Single values are uncertain, as repeats are few or missing.

Chains of the proteins cited; added tags and fusions are not shown. Lines headed by an entry give the natural chain unless they say otherwise; changes in a name come on top.
UniProt P16402, whole entry: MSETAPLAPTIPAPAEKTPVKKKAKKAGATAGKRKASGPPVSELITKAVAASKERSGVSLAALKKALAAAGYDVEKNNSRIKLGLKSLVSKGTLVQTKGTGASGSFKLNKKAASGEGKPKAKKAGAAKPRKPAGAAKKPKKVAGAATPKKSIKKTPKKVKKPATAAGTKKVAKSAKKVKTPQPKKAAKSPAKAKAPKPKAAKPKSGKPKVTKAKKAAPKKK
UniProt P50452: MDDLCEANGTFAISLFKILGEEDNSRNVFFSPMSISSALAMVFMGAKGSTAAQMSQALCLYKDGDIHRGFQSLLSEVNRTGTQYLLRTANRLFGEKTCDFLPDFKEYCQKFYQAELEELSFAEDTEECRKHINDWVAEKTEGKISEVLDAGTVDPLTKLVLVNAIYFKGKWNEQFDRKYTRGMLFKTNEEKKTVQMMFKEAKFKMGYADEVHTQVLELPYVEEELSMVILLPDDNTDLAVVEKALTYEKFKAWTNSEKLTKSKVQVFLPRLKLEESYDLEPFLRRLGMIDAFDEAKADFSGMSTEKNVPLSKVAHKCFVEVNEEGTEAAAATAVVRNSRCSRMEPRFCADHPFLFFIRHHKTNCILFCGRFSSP
UniProt Q8N4V1: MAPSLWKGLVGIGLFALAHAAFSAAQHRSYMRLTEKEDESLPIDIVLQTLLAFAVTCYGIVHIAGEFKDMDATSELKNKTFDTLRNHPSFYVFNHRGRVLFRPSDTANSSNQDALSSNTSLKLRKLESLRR
UniProt Q07157: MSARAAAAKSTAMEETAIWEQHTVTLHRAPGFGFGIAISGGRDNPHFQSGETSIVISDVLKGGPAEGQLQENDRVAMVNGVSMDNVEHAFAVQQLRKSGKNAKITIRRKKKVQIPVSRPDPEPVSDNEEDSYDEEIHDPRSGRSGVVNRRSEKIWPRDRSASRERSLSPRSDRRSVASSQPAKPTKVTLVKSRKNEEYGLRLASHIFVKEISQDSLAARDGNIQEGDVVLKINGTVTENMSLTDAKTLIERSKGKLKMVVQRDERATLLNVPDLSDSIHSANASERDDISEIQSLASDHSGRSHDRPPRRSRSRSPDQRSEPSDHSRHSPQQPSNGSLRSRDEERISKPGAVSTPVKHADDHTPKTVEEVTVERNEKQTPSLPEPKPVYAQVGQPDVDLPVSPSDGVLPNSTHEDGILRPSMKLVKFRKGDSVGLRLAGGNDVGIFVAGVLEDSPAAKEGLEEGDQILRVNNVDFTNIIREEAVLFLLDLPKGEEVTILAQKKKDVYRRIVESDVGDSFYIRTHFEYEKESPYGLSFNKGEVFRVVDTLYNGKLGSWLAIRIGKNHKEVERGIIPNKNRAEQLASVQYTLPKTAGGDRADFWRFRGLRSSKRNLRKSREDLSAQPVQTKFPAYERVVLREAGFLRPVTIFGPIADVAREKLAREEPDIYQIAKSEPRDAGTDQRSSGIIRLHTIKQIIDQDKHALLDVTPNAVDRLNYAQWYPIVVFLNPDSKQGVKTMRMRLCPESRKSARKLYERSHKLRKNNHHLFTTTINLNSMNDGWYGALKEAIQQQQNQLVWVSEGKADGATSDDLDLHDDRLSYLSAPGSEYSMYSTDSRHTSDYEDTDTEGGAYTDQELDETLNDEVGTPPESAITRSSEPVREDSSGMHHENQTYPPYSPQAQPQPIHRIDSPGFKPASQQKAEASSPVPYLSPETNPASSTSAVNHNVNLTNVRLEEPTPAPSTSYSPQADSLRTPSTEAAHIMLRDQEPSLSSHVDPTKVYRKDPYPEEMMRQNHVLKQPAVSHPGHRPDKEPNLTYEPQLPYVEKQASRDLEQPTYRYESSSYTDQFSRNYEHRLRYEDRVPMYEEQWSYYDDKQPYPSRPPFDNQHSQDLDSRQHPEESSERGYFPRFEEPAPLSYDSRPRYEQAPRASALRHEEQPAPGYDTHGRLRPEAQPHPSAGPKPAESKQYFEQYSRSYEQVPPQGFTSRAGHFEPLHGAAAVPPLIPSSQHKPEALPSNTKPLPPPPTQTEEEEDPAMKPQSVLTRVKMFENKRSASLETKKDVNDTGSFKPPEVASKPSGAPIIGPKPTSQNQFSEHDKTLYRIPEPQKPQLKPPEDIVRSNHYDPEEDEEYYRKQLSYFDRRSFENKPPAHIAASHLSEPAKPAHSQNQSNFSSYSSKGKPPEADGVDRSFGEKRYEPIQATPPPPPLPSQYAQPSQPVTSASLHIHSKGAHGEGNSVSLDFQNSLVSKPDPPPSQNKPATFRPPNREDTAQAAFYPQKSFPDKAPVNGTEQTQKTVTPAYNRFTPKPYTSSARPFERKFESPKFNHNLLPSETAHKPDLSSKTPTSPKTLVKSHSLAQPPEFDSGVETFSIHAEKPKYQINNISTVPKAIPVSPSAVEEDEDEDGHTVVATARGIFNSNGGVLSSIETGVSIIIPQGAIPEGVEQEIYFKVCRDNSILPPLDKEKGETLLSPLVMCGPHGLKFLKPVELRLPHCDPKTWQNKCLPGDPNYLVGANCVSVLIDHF
UniProt Q9NV66: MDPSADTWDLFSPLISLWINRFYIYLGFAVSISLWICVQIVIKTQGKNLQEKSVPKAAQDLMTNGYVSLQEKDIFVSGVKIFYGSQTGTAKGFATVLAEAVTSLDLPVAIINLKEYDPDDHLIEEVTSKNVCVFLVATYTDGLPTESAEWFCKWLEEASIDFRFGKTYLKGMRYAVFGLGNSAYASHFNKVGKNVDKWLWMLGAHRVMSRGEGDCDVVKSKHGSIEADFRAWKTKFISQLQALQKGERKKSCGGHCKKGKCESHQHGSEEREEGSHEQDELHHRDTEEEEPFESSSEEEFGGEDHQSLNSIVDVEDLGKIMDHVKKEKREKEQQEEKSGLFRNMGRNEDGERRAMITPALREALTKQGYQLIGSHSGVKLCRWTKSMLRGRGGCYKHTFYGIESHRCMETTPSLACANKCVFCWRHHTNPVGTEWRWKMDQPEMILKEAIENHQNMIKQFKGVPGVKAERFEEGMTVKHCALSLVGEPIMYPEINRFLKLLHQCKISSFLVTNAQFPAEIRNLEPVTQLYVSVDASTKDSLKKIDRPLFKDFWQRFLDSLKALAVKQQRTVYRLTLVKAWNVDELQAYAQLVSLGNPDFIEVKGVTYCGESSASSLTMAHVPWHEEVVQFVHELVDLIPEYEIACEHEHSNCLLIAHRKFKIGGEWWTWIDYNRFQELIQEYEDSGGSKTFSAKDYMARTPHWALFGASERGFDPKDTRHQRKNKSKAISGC
UniProt Q6S5L8: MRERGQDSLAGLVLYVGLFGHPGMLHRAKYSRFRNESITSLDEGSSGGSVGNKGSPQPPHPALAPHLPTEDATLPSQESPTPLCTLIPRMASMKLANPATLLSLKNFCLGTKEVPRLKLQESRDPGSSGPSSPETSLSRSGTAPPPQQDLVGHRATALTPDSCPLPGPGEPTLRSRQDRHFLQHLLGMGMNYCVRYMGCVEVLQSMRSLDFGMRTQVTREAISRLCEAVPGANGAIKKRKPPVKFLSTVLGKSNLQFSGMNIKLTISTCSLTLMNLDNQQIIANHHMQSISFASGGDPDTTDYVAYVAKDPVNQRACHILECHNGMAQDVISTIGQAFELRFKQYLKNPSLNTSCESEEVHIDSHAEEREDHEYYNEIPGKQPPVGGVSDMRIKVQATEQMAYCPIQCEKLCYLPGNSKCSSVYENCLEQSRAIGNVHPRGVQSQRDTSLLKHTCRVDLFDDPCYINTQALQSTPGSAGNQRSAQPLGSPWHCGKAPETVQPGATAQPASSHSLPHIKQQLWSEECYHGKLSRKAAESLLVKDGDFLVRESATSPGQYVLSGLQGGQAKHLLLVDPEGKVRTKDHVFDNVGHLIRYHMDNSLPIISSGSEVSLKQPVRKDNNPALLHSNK
UniProt P49914: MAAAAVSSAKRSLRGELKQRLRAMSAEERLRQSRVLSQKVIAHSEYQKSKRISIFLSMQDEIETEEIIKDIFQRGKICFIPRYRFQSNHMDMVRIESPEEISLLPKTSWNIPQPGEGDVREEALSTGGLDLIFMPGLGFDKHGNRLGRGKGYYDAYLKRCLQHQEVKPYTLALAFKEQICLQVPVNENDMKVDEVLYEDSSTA
UniProt Q6IPR3: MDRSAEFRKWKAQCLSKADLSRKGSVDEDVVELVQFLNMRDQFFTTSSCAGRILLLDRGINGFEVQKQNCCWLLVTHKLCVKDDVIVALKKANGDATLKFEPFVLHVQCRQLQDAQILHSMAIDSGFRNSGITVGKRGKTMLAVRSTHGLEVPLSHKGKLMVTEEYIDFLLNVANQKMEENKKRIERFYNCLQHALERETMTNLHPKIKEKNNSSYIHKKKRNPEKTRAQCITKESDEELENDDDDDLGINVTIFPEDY
UniProt P35580, whole entry: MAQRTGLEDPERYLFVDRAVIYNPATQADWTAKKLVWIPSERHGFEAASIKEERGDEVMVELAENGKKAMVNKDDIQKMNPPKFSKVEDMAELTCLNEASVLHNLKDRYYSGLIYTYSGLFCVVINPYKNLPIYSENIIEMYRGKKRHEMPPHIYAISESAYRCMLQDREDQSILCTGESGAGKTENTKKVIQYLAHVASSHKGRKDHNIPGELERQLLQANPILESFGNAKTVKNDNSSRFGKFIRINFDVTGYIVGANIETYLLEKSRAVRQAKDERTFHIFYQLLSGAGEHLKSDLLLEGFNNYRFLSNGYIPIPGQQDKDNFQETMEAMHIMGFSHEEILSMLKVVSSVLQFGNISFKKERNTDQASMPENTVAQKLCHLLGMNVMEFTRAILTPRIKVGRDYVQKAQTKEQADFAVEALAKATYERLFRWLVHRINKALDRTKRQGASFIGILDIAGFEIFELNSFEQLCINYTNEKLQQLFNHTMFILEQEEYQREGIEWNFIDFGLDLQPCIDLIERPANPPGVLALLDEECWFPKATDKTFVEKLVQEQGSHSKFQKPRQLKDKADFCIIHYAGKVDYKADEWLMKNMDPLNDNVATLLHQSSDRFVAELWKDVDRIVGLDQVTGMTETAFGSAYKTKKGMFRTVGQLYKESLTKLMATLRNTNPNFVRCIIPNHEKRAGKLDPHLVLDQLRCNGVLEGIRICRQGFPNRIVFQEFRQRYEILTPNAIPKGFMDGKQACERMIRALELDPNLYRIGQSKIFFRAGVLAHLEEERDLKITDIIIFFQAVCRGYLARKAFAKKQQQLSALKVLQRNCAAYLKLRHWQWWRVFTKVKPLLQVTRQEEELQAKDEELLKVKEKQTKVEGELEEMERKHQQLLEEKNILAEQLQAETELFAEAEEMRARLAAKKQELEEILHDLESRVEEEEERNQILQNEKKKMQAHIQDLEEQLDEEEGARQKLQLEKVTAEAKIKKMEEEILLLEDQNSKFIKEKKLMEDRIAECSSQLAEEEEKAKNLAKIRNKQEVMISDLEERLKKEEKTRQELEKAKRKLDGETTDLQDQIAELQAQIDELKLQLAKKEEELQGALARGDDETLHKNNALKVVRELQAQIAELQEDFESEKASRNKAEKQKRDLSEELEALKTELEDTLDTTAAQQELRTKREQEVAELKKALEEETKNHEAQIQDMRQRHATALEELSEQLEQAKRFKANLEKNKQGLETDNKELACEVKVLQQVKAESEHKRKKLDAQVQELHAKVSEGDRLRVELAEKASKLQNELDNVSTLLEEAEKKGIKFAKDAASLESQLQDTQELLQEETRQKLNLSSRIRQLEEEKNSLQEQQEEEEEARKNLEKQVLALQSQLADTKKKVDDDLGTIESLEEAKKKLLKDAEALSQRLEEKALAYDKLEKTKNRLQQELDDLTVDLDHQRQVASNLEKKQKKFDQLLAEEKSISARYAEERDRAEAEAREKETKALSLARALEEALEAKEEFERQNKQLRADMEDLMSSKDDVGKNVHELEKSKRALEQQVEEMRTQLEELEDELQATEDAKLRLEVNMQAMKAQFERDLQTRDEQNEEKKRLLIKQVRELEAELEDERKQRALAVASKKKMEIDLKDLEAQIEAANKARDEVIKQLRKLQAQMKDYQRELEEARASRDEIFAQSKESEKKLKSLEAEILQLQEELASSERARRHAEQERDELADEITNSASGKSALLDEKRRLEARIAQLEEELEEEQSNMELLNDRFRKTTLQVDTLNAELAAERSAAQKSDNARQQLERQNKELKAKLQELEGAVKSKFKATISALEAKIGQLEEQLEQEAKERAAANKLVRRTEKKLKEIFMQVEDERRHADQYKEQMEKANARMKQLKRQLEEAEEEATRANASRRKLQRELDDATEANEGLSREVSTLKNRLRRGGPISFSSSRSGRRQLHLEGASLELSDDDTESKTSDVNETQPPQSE

Compound: [O-][N+](C(C1=C(C(O)=C2)NC(C(C=C3)=CC=C3Cl)C4C1C=CC4)=C2Cl)=O
Experiment: melting temperature shift (compound 7 minus DMSO); higher = compound stabilises the protein
Conditions: 10 µM
Procedure: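 Thermal proteome profiling (TMT mass spectrometry) in intact DAOY medulloblastoma cells or DAOY lysates treated with 10 µM compound 7 or DMSO, heated at 10 temperatures from 40.5 to 73.8 °C for 3 min. Melting curves were fitted with the Bioconductor TPP package, and the melting point difference between compound and vehicle is reported per protein (single curve per condition).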

[1] = system: DAOY cell lysate, treatment time: 20 min, 4 °C
[2] = system: intact DAOY cells, treatment time: 90 min, 37 °C

Target	melting temperature shift [1]	melting temperature shift [2]
C11ORF68 (UniProt Q9H3H3)	-0.961 °C	-0.587 °C
SYNJ2BP (UniProt P57105)	0.166 °C	-0.78 °C
NT5DC1 (UniProt Q5TFE4)	-0.543 °C	-0.505 °C
UniProt Q4VC05	–	1.22 °C
PLPP2 (UniProt O43688)	–	4.01 °C
HMOX2 (UniProt P30519)	1.55 °C	-0.0368 °C
UniProt Q9Y5W7	-0.78 °C	0.862 °C
RNF20 (UniProt Q5VTR2)	-0.0355 °C	1.09 °C
UniProt A6NEC2	–	-0.0303 °C
UniProt Q8IVF7	-0.0975 °C	0.374 °C
UniProt P16402	1.68 °C	-0.485 °C
UniProt Q12999	-0.802 °C	–
TPD52L1 (UniProt Q16890)	-0.128 °C	–
UniProt Q5TZA2	-0.0389 °C	0.0589 °C
YIPF3 (UniProt Q9GZM5)	1.47 °C	-3.2 °C
UniProt Q8WUD1	-0.0621 °C	0.741 °C
STX16 (UniProt O14662)	0.786 °C	0.428 °C
AP3M1 (UniProt Q9Y2T2)	-0.538 °C	-0.906 °C
FN3KRP (UniProt Q9HA64)	-0.978 °C	-3.71 °C
SDCBP (UniProt O00560)	0.0136 °C	0.532 °C
UniProt Q8TCA0	-0.983 °C	-0.712 °C
SERPINB8 (UniProt P50452)	-1.25 °C	0.473 °C
UniProt Q9UMX2	–	-1.33 °C

Target	melting temperature shift [1]	melting temperature shift [2]
BLOC1S3 (UniProt Q6QNY0)	-2.22 °C	–
CBX1 (UniProt P83916)	-0.32 °C	0.776 °C
CD276 (UniProt Q5ZPR3)	1.79 °C	–
ABCB8 (UniProt Q9NUT2)	-1.78 °C	-2.18 °C
UniProt Q8N2F6	0.28 °C	-1.19 °C
EEFSEC (UniProt P57772)	-0.667 °C	-0.439 °C
GPATCH8 (UniProt Q9UKJ3)	1.45 °C	2.42 °C
UniProt Q7L523	-0.863 °C	1.37 °C
UniProt Q5EB52	0.527 °C	-0.0988 °C
NAXE (UniProt Q8NCW5)	-0.691 °C	-1.15 °C
UniProt Q13506	0.273 °C	–
MMGT1 (UniProt Q8N4V1)	0.948 °C	-0.202 °C
INPPL1 (UniProt O15357)	-0.582 °C	-0.892 °C
VPS36 (UniProt Q86VN1)	-0.52 °C	0.31 °C
RPS10 (UniProt P46783)	-0.0898 °C	-0.461 °C
TAF15 (UniProt Q92804)	1.83 °C	–
SLC4A2 (UniProt P04920)	0.63 °C	-0.651 °C
CCNB1 (UniProt P14635)	-0.444 °C	-0.136 °C
UniProt A6NKH3	–	-1.28 °C
TJP1 (UniProt Q07157)	0.35 °C	-0.294 °C
TAOK1 (UniProt Q7L7X3)	0.0231 °C	-0.3 °C
MED24 (UniProt O75448)	-1.29 °C	-2.37 °C
UniProt A9Z1Z3	–	0.0972 °C

4 records drawn at random from the list so far:
Target	melting temperature shift [1]	melting temperature shift [2]
TAOK1 (UniProt Q7L7X3)	0.0231 °C	-0.3 °C
UniProt Q5EB52	0.527 °C	-0.0988 °C
UniProt Q13506	0.273 °C	–
MED24 (UniProt O75448)	-1.29 °C	-2.37 °C

Next part

Target	melting temperature shift [1]	melting temperature shift [2]
UniProt Q96C12	–	-2.21 °C
SMYD3 (UniProt Q9H7B4)	-0.251 °C	-1.57 °C
PARVB (UniProt Q9HBI1)	-2.13 °C	-1.37 °C
RPN1 (UniProt P04843)	1.33 °C	-0.445 °C
TSPYL1 (UniProt Q9H0U9)	1.43 °C	–
TYW1 (UniProt Q9NV66)	1.32 °C	–
ARMT1 (UniProt Q9H993)	0.171 °C	0.431 °C
UniProt Q9ULX9	-0.889 °C	1.49 °C
CD109 (UniProt Q6YHK3)	-1 °C	-1.02 °C
UniProt P61812	0.968 °C	0.962 °C
EIF4H (UniProt Q15056)	0.029 °C	-0.132 °C
CPSF6 (UniProt Q16630)	-0.45 °C	-0.74 °C
FADS1 (UniProt O60427)	2.49 °C	1.94 °C
NIP7 (UniProt Q9Y221)	-0.38 °C	2.65 °C
EPB41 (UniProt P11171)	0.997 °C	0.342 °C
ANKZF1 (UniProt Q9H8Y5)	-2.09 °C	-0.861 °C
UniProt Q6S5L8	–	0.336 °C
GSE1 (UniProt Q14687)	1.12 °C	–
HSPA9 (UniProt P38646)	0.637 °C	-1.82 °C
MTHFS (UniProt P49914)	0.295 °C	0.49 °C
NMT1 (UniProt P30419)	-0.157 °C	-0.694 °C
PRPF4 (UniProt O43172)	-0.0962 °C	-0.554 °C
CMTR1 (UniProt Q8N1G2)	-1.06 °C	-0.145 °C

Target	melting temperature shift [1]	melting temperature shift [2]
TMEM11 (UniProt P17152)	1.4 °C	0.608 °C
PREP (UniProt P48147)	-0.702 °C	0.48 °C
UniProt Q8NC54	0.372 °C	–
UniProt P63092	0.863 °C	-0.571 °C
PYCR2 (UniProt Q96C36)	2.11 °C	0.318 °C
THOC2 (UniProt Q8NI27)	-0.633 °C	1.12 °C
KIF20A (UniProt O95235)	-0.344 °C	3.1 °C
TYW3 (UniProt Q6IPR3)	-1.52 °C	–
AP2B1 (UniProt P63010)	-0.233 °C	-0.114 °C
FASTKD2 (UniProt Q9NYY8)	0.681 °C	-0.159 °C
HIBADH (UniProt P31937)	0.584 °C	0.56 °C
SLC30A1 (UniProt Q9Y6M5)	2.48 °C	–
NAA50 (UniProt Q9GZZ1)	-0.345 °C	-0.588 °C
ABCC4 (UniProt O15439)	-0.369 °C	0.206 °C
WTAP (UniProt Q15007)	1.47 °C	1.01 °C
UniProt Q96FA7	–	-0.239 °C
GTF3C4 (UniProt Q9UKN8)	-0.0289 °C	0.586 °C
TIPRL (UniProt O75663)	0.0587 °C	0.146 °C
UniProt P23219	–	-0.155 °C
MRPL22 (UniProt Q9NWU5)	3.07 °C	-1.13 °C
TENM3 (UniProt Q9P273)	1.13 °C	1.1 °C
UniProt Q9Y5J7	1.3 °C	-0.166 °C
MYH10 (UniProt P35580)	-0.523 °C	-0.0588 °C

Target	melting temperature shift [1]	melting temperature shift [2]
QSOX2 (UniProt Q6ZRP7)	0.477 °C	1.18 °C
UniProt P52926	5.67 °C	–
RAD50 (UniProt Q92878)	-0.601 °C	-1.19 °C
FBXO9 (UniProt Q9UK97)	–	2.36 °C
STAM (UniProt Q92783)	-0.923 °C	0.191 °C
UniProt Q6ZQQ6	-1.23 °C	-1.25 °C
UniProt Q2VIR3	–	-0.415 °C
UniProt Q8NI60	0.382 °C	-1.22 °C
PTGR1 (UniProt Q14914)	-0.741 °C	-2.06 °C
TMEM237 (UniProt Q96Q45)	1.66 °C	–
FASTKD1 (UniProt Q53R41)	–	-0.464 °C
UniProt O75526	–	-0.829 °C
KIAA1429 (UniProt Q69YN4)	-0.553 °C	-0.454 °C
FAM120B (UniProt Q96EK7)	-1.02 °C	-0.318 °C
FAU (UniProt P62861)	1.71 °C	1.44 °C
DCUN1D5 (UniProt Q9BTE7)	-1.51 °C	-1.45 °C
MGRN1 (UniProt O60291)	–	-0.101 °C
UniProt Q9ULC8	–	0.237 °C
ANXA11 (UniProt P50995)	-0.49 °C	0.487 °C
UniProt P54253	-0.00623 °C	–
